No constants are given. Whether binding was seen depends on the method and setting. In cells and extracts the contact can be indirect. Here binding means that the protein was enriched with, or labelled near, the bait; the list need not be complete.
target: IPCK1-flag (Arabidopsis thaliana); experiment: affinity purification with mass spectrometry; IP-MS: total protein (RIPA buffer) of 10-day-old 35S::IPCK1-flag/WT seedlings, flag magnetic beads 2 h on ice, washed with PBS

binding | Binder
binds | GRF3 (14-3-3 protein), endogenous (protein, UniProt P42644 1-255) MSTREENVYMAKLAEQAERYEEMVEFMEKVAKTVDVEELSVEERNLLSVAYKNVIGARRASWRIISSIEQKEESKGNEDHVAIIKDYRGKIESELSKICDGILNVLEAHLIPSASPAESKVFYLKMKGDYHRYLAEFKAGAERKEAAESTLVAYKSASDIATAELAPTHPIRLGLALNFSVFYYEILNSPDRACSLAKQAFDDAIAELDTLGEESYKDSTLIMQLLRDNLTLWTSDMTDEAGDEIKEASKPDGAE
binds | GRF4 (General Regulatory Factor 4, 14-3-3 protein), endogenous (protein, UniProt P46077 1-267) MAAPPASSSAREEFVYLAKLAEQAERYEEMVEFMEKVAEAVDKDELTVEERNLLSVAYKNVIGARRASWRIISSIEQKEESRGNDDHVTTIRDYRSKIESELSKICDGILKLLDTRLVPASANGDSKVFYLKMKGDYHRYLAEFKTGQERKDAAEHTLTAYKAAQDIANAELAPTHPIRLGLALNFSVFYYEILNSPDRACNLAKQAFDEAIAELDTLGEESYKDSTLIMQLLRDNLTLWTSDMQDESPEEIKEAAAPKPAEEQKEI
binds | PI-PLC2, endogenous (protein, UniProt Q39033 1-581) MSKQTYKVCFCFRRRFRYTASEAPREIKTIFEKYSENGVMTVDHLHRFLIDVQKQDKATREDAQSIINSASSLLHRNGLHLDAFFKYLFGDNNPPLALHKVHHDMDAPISHYFIFTGHNSYLTGNQLSSDCSEVPIIDALKKGVRVIELDIWPNSNKDDIDVLHGMTLTTPVGLIKCLKAIRAHAFDVSDYPVVVTLEDHLTPDLQSKVAEMVTEIFGEILFTPPVGESLKEFPSPNSLKRRIIISTKPPKEYKEGKDVEVVQKGKDLGDEEVWGREVPSFIQRNKSEAKDDLDGNDDDDDDDDEDKSKINAPPQYKHLIAIHAGKPKGGITECLKVDPDKVRRLSLSEEQLEKAAEKYAKQIVRFTQHNLLRIYPKGTRVTSSNYNPLVGWSHGAQMVAFNMQGYGRSLWLMQGMFRANGGCGYIKKPDLLLKSGSDSDIFDPKATLPVKTTLRVTVYMGEGWYFDFRHTHFDQYSPPDFYTRVGIAGVPGDTVMKKTKTLEDNWIPAWDEVFEFPLTVPELALLRLEVHEYDMSEKDDFGGQTCLPVWELSEGIRAFPLHSRKGEKYKSVKLLVKVEFV

From PMC11178898, “A clade of receptor-like cytoplasmic kinases and 14-3-3 proteins coordinate inositol hexaphosphate accumulation” (Nature Communications, 2024)
